# Assay results: patent EP0532716B1, “NEW […] WITH IMUNOMODULATING ACTIVITY AND PREPARATION THEREOF” (INSTITUTO […] T[…] NAVARRA, S.A., priority 1990, dated 1992)
# Part of at least one peptide drawing is inferred or uncertain, most often the ends.
# Test system: lymphomononuclear cells
# Test: Phenotypes of lymphomononuclear cells after peptide activation (fluorescein labeled antibodies, automated flow cytometry)
# Type: cell-based
# Conditions: 20 micrograms of peptide, 4 days, three healthy donors, Mean ± Standard error
# Experimental: Peripheral blood mononuclear cells from healthy donors were obtained by leukapheresis, processing 5 to 10 liters of whole blood, using a Fenwall CS-3000 continuous-flow cell separator (Fenwall Laboratories, Deerfield, Illinois, USA). Vascular access was obtained with a double lumen central venous catheter.
# Separated lymphomononuclear cells are washed, counted and resuspended at a concentration of 2x10^6 per ml in RPMI-1640 medium containing 10 units of penicillin per ml, 200 µg of gentamycin per ml, 2mM of glutamine per ml and 2,5% of autologous serum in a PL-732 culture bag (Fenwall Laboratories, Deerfield, Illinois, USA).
# The incubation medium contained 20 micrograms of the peptide being studied. • Peptide 1 (Peptide of Example 1). • Peptide 2 (Peptide of Example 2). • Peptide 3 (Peptide of Example 3). • Peptide 4 (Peptide of Example 4). Control Peptide (Ala-Asp-Ala-Gln-Gln-Asn-Lys-Phe-Asn-Lys-Asp-Gln-Gln-Ser-Val. In this pentadecapeptide Proline is absent. This control peptide has in common with the peptides object the invention only aa11=Asp).
# The cells are cultured for 4 days in a moist-air incubator at 37^ºC, 5% CO2 and 21% O2, One ml sample is drawn daily for microbiological studies.
# Changes in the cytotoxic ability of lymphomononuclear cells before and after peptide activation are measured with the ^51Cr release assay, using K562 and Daudi target cells (Table I). Phenotypic changes of lymphomononuclear cells before and after peptide activation are also assessed with fluorescein labeled […] antibodies and automated flow cytometry (Table II). It is well known that lymphomononuclear cells are very heterogeneous, but the presence of surface markers (CD) allows the description of their phenotypes (Weissman IL, Fathman CG, J Exp Med (1973) 137:504; Small M, Herzenberg CA, Weissman IL, Cell Immunol (1975) 15:109).
SMILES,CELLS EXPRESSING SURFACE MARKERS (%) CD3 [%],CELLS EXPRESSING SURFACE MARKERS (%) CD8 [%],CELLS EXPRESSING SURFACE MARKERS (%) CD11b [%],CELLS EXPRESSING SURFACE MARKERS (%) CD14 [%],CELLS EXPRESSING SURFACE MARKERS (%) CD16 [%],CELLS EXPRESSING SURFACE MARKERS (%) CD56 [%]
"CC(C)[C@H](NC(=O)[C@H](CO)NC(=O)[C@H](CCC(N)=O)NC(=O)[C@H](CCC(N)=O)NC(=O)[C@H](CC(=O)O)NC(=O)[C@H](CCCCN)NC(=O)[C@H](CC(N)=O)NC(=O)[C@H](Cc1ccccc1)NC(=O)[C@H](CCCCN)NC(=O)[C@H](CC(N)=O)NC(=O)[C@H](CCC(N)=O)NC(=O)[C@H](CCC(N)=O)NC(=O)[C@H](C)NC(=O)[C@H](CC(=O)O)NC(=O)[C@H](C)N)C(=O)O [Control Peptide, Ala-Asp-Ala-Gln-Gln-Asn-Lys-Phe-Asn-Lys-Asp-Gln-Gln-Ser-Val, reference compound]",60 ± 2,17 ± 2,13 ± 4,9 ± 2,12 ± 4,6 ± 2
CC[C@H](C)[C@H](NC(=O)[C@H](CCC(=O)O)NC(=O)[C@H](CCCCN)NC(=O)[C@H](CO)NC(=O)[C@@H](NC(=O)[C@H](CO)NC(=O)[C@@H]1CCCN1C(=O)[C@H](CC(=O)O)NC(=O)[C@H](CC(=O)O)NC(=O)[C@H](CCCCN)NC(=O)[C@H](CC(C)C)NC(=O)[C@H](CO)NC(=O)[C@H](CCC(N)=O)NC(=O)[C@@H](NC(=O)[C@H](Cc1ccccc1)NC(=O)CNC(=O)[C@@H](N)CC(N)=O)[C@@H](C)CC)C(C)C)C(=O)N[C@@H](CC(C)C)C(=O)N[C@@H](C)C(=O)N[C@@H](CCC(=O)O)C(=O)N[C@@H](C)C(=O)N[C@@H](CCCCN)C(=O)N[C@H](C(=O)O)C(C)C [Peptide 4],58 ± 3,18 ± 2,21 ± 3,17 ± 4,21 ± 6,17 ± 5
